Experimental data: PMC3887067
These are yes or no findings as the source states them, for the method shown. Binding seen in cells or lysates may run through a third protein. Some results given as binding are weak or reduced against the parent protein; the word gives no strength.

Sequences of proteins named here, by UniProt entry; tags and fusion partners are left off.
UniProt Q15717: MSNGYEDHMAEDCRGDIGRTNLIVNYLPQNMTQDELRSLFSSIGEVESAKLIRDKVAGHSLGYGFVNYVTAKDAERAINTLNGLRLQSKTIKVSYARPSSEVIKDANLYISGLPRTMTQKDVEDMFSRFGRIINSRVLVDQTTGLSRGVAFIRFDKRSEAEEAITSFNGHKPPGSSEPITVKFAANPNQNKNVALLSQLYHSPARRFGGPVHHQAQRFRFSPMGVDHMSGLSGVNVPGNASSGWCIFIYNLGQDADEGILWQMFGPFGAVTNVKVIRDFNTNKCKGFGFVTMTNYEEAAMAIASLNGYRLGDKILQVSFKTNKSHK
UniProt Q92879: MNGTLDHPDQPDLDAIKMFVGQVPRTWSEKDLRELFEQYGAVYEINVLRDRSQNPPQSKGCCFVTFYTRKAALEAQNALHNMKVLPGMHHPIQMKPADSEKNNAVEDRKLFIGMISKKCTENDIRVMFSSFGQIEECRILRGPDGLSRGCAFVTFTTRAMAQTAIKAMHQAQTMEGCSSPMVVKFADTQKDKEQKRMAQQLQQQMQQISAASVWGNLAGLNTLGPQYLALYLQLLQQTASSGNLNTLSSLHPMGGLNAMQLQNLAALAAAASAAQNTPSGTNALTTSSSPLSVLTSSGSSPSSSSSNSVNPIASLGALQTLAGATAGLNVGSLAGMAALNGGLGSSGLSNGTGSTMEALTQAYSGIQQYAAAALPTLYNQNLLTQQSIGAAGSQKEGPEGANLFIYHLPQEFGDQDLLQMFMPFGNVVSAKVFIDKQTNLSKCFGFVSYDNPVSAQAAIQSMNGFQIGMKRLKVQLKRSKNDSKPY
UniProt Q96AE4: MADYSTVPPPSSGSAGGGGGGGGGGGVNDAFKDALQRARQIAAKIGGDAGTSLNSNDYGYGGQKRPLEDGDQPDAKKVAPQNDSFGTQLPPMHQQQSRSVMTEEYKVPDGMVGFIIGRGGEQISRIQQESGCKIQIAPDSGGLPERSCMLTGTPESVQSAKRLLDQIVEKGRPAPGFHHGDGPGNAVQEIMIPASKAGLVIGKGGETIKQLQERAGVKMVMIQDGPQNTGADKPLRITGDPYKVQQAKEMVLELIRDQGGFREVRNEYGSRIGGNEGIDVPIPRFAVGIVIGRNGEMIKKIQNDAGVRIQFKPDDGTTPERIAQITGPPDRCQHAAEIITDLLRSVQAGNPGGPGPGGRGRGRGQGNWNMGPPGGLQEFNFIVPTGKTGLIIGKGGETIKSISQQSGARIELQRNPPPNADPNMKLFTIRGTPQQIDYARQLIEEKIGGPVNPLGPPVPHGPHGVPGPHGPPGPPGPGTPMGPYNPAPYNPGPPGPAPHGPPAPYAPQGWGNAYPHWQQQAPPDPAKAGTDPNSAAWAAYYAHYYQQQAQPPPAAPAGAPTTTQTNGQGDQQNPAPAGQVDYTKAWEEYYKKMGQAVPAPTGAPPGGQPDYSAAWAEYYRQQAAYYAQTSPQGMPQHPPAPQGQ

Molecular target: peptidyl-prolyl cis/trans isomerase NIMA-interacting 1 (Pin1) (human (endogenous in HEK293T)) (UniProt Q13526)
Test: co-IP; endogenous Pin1 immunoprecipitated with anti-Pin1 antibody (anti-HA as control) from pre-cleared HEK293T lysate in RIPA buffer, Protein A/G magnetic beads, overnight at 4°C, with or without 10 μg/mL RNaseA; bound proteins detected by western blot

binding | Substance
binds | ELAV-like protein 1 or Human antigen R (HuR) (from UniProt Q15717 1-326)
binds | Stem-Loop Binding Protein (SLBP) (from UniProt Q14493 1-270)
no binding | CUGBP (from UniProt Q92879 1-486)
no binding | FBP (from UniProt Q96AE4 1-644)
